Laboratory results taken from PubChem BioAssay AID588590 (National Center for Advancing Translational Sciences (NCATS), 2011).
Values joined by “and” are separate entries in the source; they are usually repeats but may differ in a detail not shown here. Equal entries are not always repeated. Among all 390,000 compounds or so, about 4,000 (1%) were called active. Inconclusive results, whose numbers are uncertain, are shown with a selection of clear calls. Calls come from the whole dose curve; as a rule, active = well fitted inhibition curve with a large enough effect; inconclusive = small, poorly fitted or top-dose-only effect, or another doubt; inactive = no such curve, though single readings can be large or run the other way. A potency beside an inconclusive call is a rough fit, not a confirmed value.

By UniProt entry, the sequences of proteins in these tests, tags left out. Where a name states a change or a piece, a line headed by the entry shows the natural chain unless it says otherwise.
UniProt Q9UNA4: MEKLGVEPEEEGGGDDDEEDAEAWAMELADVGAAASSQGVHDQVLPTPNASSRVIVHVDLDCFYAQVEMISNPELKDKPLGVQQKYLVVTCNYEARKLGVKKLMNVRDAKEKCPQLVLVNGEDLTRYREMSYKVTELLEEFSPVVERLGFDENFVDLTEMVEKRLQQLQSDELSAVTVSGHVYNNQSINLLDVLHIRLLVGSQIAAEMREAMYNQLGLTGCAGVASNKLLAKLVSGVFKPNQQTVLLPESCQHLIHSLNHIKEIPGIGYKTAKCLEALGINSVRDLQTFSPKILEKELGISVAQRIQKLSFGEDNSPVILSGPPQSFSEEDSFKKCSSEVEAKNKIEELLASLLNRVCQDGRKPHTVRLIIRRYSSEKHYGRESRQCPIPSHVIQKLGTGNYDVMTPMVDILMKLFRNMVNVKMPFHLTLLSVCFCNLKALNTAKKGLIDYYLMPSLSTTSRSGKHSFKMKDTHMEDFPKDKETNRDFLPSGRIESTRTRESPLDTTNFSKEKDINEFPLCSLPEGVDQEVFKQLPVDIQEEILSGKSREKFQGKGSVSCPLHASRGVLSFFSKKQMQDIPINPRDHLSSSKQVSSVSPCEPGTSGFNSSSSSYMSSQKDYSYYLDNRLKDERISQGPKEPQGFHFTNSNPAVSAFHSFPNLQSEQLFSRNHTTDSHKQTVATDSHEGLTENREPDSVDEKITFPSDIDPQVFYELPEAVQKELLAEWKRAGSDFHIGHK

biological target: DNA polymerase iota (Homo sapiens) (UniProt Q9UNA4); test: qHTS for Inhibitors of Polymerase Iota; conditions: Pol iota fluorescent replication assay, 10 min; series mostly up to 115 µM; activity, negative = inhibition: at the top concentration
In short: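 Fluorescent replication assay read twice, at 0 min and 10 min after adding 50 nM (final) substrate. Enzyme (10 nM) and compounds were first incubated 15 min at room temperature; enzyme-free buffer wells were negative controls.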
Potency is the fitted concentration of half-maximal effect.

Potency, inconclusive:
CCC(=O)Oc1ccc2c(c1)O/C(=C\c1ccco1)C2=O 28.2 µM [inhibitor, full curve, poor fit]
COc1ccc(NS(=O)(=O)c2ccc3c(c2)[C@H]2C=CC[C@H]2[C@@H](c2ccc(C(=O)O)cc2)N3)cc1 15.8 µM [inhibitor, full curve, poor fit] and 3.55 µM [inhibitor, full curve, poor fit]
O=C(O)c1ccc(Cl)c(S(=O)(=O)N2CCC(Cc3ccccc3)CC2)c1 79.4 µM [inhibitor, single point]
Cc1ccccc1C(=O)N1CCN(c2ccc(NC(=O)CSc3ccc(Cl)cc3)cc2)CC1 14.1 µM [inhibitor, partial curve, poor fit]
COC(=O)c1nc2n(n1)C(c1ccc(OC)c(OC)c1OC)C1=C(CCCC1=O)N2 (stereo not given) 10 µM [inhibitor, partial curve, poor fit]
Cc1ccc(S(=O)(=O)N2CCc3cc(C(=O)Nc4ccc(Cl)cc4C)ccc32)cc1 89.1 µM [inhibitor, single point]
O=C(c1ccco1)N1CCN(C(=O)c2cccn3c(=O)c4c5c(sc4nc23)CCCC5)CC1 14.1 µM [inhibitor, full curve, poor fit]
Cc1ccc(-c2cc(NC(=O)c3cccc(C)c3)on2)cc1 10 µM [inhibitor, full curve, poor fit]
COc1ccc2oc(=O)c(/C(C)=N/Nc3ccccc3)cc2c1 44.7 µM [inhibitor, partial curve, poor fit]
CN(CC(=O)Nc1c(Cl)cccc1Cl)C(=O)Cn1[nH]c(=O)c2ccccc2c1=O 50.1 µM [inhibitor, single point]
COc1ccc(/C=N/NC(=O)c2cc(-c3cccnc3)nc3ccccc23)c(OC)c1 39.8 µM [inhibitor, single point]
CC(C)C[C@@H](COc1ccccc1)N1CCN(C)CCC1=O 39.8 µM [inhibitor, single point]
CCCNC(=O)c1nn2c(C(F)(F)F)cc(-c3ccccc3)nc2c1Br 50.1 µM [inhibitor, partial curve, poor fit]
O=C1NC(c2ccccc2)C(C(=O)c2cccs2)=C1O (stereo not given) 39.8 µM [inhibitor, single point]
CC(C)N1CC2=C(OC(N)=C(C#N)C2c2cccnc2)/C(=C/c2cccnc2)C1 (stereo not given) 39.8 µM [inhibitor, single point]
COc1ccc(C(=O)Oc2ccc(C(c3c(C)[nH][nH]c3=O)c3c(C)[nH][nH]c3=O)cc2)cc1 20 µM [inhibitor, single point]
O=C(NCCNS(=O)(=O)c1ccccc1)c1cc(OCC(F)(F)F)ccc1OCC(F)(F)F 126 µM [inhibitor, partial curve, poor fit]
O=C(NC1CC1)C1=C[C@@H](C2CC2)C[C@@H](OCc2ccc(CO)cc2)O1 89.1 µM [inhibitor, single point]
O=C1CC(Nc2ccc(N3CCOCC3)cc2)C(=O)N1c1cccc(C(F)(F)F)c1 (stereo not given) 31.6 µM [inhibitor, partial curve, poor fit]
CCOc1ccccc1NC(=S)N1CCN(c2nc(-c3cccc(OC)c3)cs2)CC1 79.4 µM [inhibitor, partial curve, poor fit]
CSc1nsc(SC)c1C(=O)Nc1ccc(Cl)cc1 0.631 µM [inhibitor, full curve, poor fit]
O=C(NCc1ccco1)C1c2ccccc2Oc2ccccc21 10 µM [inhibitor, full curve, poor fit]
NC(=O)c1cccc(C(N)=O)n1 63.1 µM [inhibitor, single point]
CCCCc1nc(Cl)c(C#N)c2c1CSC(C)(C)C2 10 µM [inhibitor, partial curve, poor fit]
O=[N+]([O-])c1ccccc1C1Nc2cccc3cccc(c23)N1 2.82 µM [inhibitor, full curve, poor fit]
CN(C)N1C(=O)/C(=C/c2ccco2)SC1=Nc1ccccc1 12.6 µM [inhibitor, partial curve, poor fit]
NC(=O)c1ccc(-n2nnnc2SCc2ccccc2)cc1 28.2 µM [inhibitor, single point]
C=CCn1c(SCc2ccc(C(=O)O)cc2)nc2sc(C)c(C)c2c1=O 63.1 µM [inhibitor, single point]
Cc1cc(C)nc(N2CCCC(C(=O)Nc3nc4ccc(S(C)(=O)=O)cc4s3)C2)n1 (stereo not given) 79.4 µM [inhibitor, partial curve, poor fit]
O=C(O)CN1C(=O)/C(=C/c2ccsc2)SC1=S 25.1 µM [inhibitor, partial curve, poor fit]

Not a retest: 2 of the compounds above.
Potency, inconclusive:
COc1ccc2oc(=O)c(/C(C)=N/Nc3ccccc3)cc2c1 44.7 µM [inhibitor, partial curve, poor fit]
CN(CC(=O)Nc1c(Cl)cccc1Cl)C(=O)Cn1[nH]c(=O)c2ccccc2c1=O 50.1 µM [inhibitor, single point]

Following part:

Potency, active:
CSc1nsc(/C=C/Nc2ccc(O)cc2C)c1C#N 25.1 µM
O=C1C=C(NCc2ccccc2)c2ccccc2C1=O 1 µM
Cn1c(=O)c(Nc2ccc(O)cc2)c2c3c(cccc31)C(=O)c1ccccc1-2 15.8 µM

activity, negative = inhibition, inactive:
CCCS(=O)(=O)c1c(S(=O)(=O)CCC)c2cc(-c3ccncc3)ccn2c1C(=O)OC 123%
CCc1cccc(-n2c(=O)c3cccnc3n2CC(=O)Nc2ccc(OC)c(Cl)c2)c1 -6.19%
COc1ccc(NC(=O)c2cccs2)cc1 -31.5%
COc1ccc(-c2nc3c(c(SCC(=O)N4CCOCC4)n2)Cc2c(CO)cnc(C)c2O3)cc1 3.91%
O=C1C=C(c2cccc3c2sc2ccccc23)C[C@@H](c2ccc(F)cc2)C1 -0.852%
CCOC(=O)N1CCc2cc(OC)c(OC)c3c2c1cc1cc(OC)c(OC)cc13 54.8%
S=C(NCCSCc1c(Cl)cccc1Cl)Nc1ccccc1 -4.43%
